# Reference: patent US20250313625A1
# No constants are given. Whether binding was seen depends on the method and setting. Some results given as binding are weak or reduced against the parent protein; the word gives no strength.
# T1: human LAG3 (form used in Octet, Biacore and HDX-MS not given) (human) (UniProt P18627)
# T1 sequence (looked up): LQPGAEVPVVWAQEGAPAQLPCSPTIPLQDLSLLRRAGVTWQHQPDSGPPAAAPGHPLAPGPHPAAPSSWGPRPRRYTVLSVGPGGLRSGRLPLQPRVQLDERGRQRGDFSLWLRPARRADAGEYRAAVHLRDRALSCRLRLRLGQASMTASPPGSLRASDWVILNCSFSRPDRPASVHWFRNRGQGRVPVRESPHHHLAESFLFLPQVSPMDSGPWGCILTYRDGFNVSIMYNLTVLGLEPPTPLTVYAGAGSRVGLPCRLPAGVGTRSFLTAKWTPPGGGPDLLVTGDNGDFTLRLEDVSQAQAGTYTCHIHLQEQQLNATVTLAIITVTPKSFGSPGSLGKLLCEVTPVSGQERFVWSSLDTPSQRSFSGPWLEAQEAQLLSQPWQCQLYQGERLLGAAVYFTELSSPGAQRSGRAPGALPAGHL
# Tests used:
# [1] = target: T1, human LAG3 (form used in Octet, Biacore and HDX-MS not given) (human); assay: SPR (Biacore)
# [2] = target: T1, human LAG3 (form used in Octet, Biacore and HDX-MS not given) (human); assay: BLI (Octet)
Binder,binding [1],binding [2]
"hu023.04 (antibody, human IgG4, V domains shown) VH: QVQLVQSGAEVKKPGASVKVSCKASGYTFTESPMNWVRQAPGQGFEWMGIIYTDTGEPTYAEEFKGRVTMTRDTSTSTVYMELSSLRSEDTAVYFCASDYGSILYWYFDVWGQGTLVTVSS VL: DIQMTQSPSSLSASVGDRVTITCKASQDVSTAVAWYQQKPGKAPKLLIYSASYRYTGVPSRFSGSGSGTDFTLTISSLQPEDFATYYCQQHYNAPPTFGQGTKLEIK",binds,
"hu021.269 (antibody, V domains shown) VH: QVQLQESGPGLVKPSQTLSLTCTVSGYSITSGYYWNWIRQHPGNKLEWIGDISYDGGNNYNPSLKNRVTISRDTSKNQFSLKLSSVTAADTAVYYCARDITLTGAMDYWGQGTTVTVSS VL: EIVLTQSPATLSLSPGERATLSCRASESVDNYGISFMHWYQQKPGQAPRLLIYRASNRESGIPARFSGSGSRTDFTLTISSLEPEDFAVYYCQQSNKDPYTFGQGTKLEIK",,binds
"hu021.279 (antibody, V domains shown) VH: QIQLQESGPGLVKPGQTLSLTCTVSGYSITSGYYWTWIRQHPGNKLEWIGDISYDAGNNYNPSLKNRITISRDTSKNQFSLKLSSVTAEDTATYYCARDITLTGAMDYWGQGTTVTVSS VL: EIVLTQSPATLSLSPGERATLSCRASESVDNYGISFMHWYQQKPGQAPRLLIYRASNLESGIPARFSGSGSGTDFTLTISSLEPEDFAVYYCQQSNKDPYTFGQGTKLEIK",,binds
"hu029.40 (antibody, V domains shown) VH: QVQLVESGGGLVKPGGSLRLSCAASGFTFSSYAMSWVRQAPGKRLEWVAYVTSGGDYIYYADTVKGRFTISRDDAKNSLYLQMNSLRAEDTAMYYCTRVAYDYEWYFDVWGQGALVTVSS VL: DIQMTQSPSSVSTSVGDRVTITCKASQDVTTAVAWYQQKPGKAPKLLIYSASYRYTGVPSRFSGSGSGTDFTFTISSVQPEDFATYYCQQHDSSPWTFGQGTKLEIK",,binds
"hu029.53 (antibody, V domains shown) VH: QVQLVESGGGLVKPGGSLRLSCAASGFTFSSYAMSWIRQAPGKGLEWVAYVTSGGDYIYYADTVKGRFTISRDDAKNSLYLQMNSLRAEDTAMYYCTRVAYDYEWYFDVWGQGALVTVSS VL: DIQMTQSPSSVSASVGDRVTITCKASQDVTTAVAWYQQKPGKAPKLLIYSASYRYTGVPSRFSGSGSGTDFTLTISSLQPEDFATYYCQQHDSSPWTFGQGTKLEIK",,binds
"hu029.55 (antibody, V domains shown) VH: QVQLVESGGGLVKPGGSLRLSCAASGFTFSSYAMSWIRQAPGKGLEWVSYVTSGGDYIYYADTVKGRFTISRDDAKNSLYLQMNSLRAEDTAVYYCTRVAYDYEWYFDVWGQGTLVTVSS VL: DIQMTQSPSSVSASVGDRVTITCKASQDVTTAVAWYQQKPGKAPKLLIYSASYRYTGVPSRFSGSGSGTDFTLTISSLQPEDFATYYCQQHDSSPWTFGQGTKLEIK",,binds
"hu029.55.S93Q (antibody, V domains shown) VH: QVQLVESGGGLVKPGGSLRLSCAASGFTFSSYAMSWIRQAPGKGLEWVSYVTSGGDYIYYADTVKGRFTISRDDAKNSLYLQMNSLRAEDTAVYYCTRVAYDYEWYFDVWGQGTLVTVSS VL: DIQMTQSPSSVSASVGDRVTITCKASQDVTTAVAWYQQKPGKAPKLLIYSASYRYTGVPSRFSGSGSGTDFTLTISSLQPEDFATYYCQQHDQSPWTFGQGTKLEIK",,binds
